Two molecules from paper doi:10.1101/2023.11.08.566322 can be followed below.

Sequences of proteins named here, by UniProt entry; tags and fusion partners are left off.
UniProt Q9CW03: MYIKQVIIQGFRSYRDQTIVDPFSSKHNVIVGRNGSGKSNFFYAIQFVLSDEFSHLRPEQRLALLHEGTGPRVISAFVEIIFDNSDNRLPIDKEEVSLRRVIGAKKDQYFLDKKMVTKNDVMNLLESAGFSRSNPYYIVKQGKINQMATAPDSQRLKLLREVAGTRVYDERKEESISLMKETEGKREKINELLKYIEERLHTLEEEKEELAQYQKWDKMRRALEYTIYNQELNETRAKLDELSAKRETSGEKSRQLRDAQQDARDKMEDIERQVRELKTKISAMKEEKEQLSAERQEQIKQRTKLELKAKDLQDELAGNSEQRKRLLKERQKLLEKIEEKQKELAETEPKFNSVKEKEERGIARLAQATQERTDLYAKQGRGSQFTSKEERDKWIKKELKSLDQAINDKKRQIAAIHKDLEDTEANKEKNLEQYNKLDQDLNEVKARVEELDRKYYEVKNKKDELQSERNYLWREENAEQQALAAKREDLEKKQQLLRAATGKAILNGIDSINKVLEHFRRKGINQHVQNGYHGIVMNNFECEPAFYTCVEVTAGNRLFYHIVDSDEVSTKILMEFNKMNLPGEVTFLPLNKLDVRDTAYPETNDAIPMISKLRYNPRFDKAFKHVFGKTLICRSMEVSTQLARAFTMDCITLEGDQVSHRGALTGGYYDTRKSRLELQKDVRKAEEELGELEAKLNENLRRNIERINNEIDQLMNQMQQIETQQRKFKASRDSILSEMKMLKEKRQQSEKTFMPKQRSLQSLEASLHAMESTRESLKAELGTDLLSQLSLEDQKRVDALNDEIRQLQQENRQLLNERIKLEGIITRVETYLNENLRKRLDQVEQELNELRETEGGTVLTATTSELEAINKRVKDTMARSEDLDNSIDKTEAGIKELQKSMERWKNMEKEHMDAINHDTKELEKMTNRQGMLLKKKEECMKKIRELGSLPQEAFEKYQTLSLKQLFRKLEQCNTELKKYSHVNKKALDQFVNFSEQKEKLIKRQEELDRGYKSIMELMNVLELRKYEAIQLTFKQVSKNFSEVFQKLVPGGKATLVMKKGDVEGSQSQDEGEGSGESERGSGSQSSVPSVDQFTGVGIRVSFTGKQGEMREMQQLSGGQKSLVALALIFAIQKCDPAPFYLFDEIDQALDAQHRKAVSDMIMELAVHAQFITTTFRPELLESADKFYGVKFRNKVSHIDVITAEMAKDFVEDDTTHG

These are yes or no findings as the source states them, for the method shown. In cells and extracts the contact can be indirect. These calls come from enrichment with a bait or labelling near it, and not all partners need be listed.

The target of this assay is T1, HNF4α (mouse (endogenous in villus cells of C57BL/6 mice)) (UniProt P49698).
T1 sequence: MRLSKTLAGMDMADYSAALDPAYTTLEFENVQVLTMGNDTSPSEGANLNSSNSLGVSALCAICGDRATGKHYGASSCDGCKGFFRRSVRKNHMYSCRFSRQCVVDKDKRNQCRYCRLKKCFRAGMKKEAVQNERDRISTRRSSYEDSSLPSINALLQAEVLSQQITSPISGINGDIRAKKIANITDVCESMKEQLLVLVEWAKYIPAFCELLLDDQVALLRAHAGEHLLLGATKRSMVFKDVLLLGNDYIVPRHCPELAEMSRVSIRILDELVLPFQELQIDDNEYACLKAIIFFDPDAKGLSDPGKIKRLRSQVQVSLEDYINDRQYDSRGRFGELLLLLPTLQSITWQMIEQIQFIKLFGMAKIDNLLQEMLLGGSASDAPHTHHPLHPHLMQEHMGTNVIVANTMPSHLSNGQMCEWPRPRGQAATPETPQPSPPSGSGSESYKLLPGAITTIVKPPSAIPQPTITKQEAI
The assay can be described thus: affinity purification with mass spectrometry.

Regarding SMC3 (from UniProt Q9CW03 1-1217), the binding result is “binds”.

B1: SMC1A (protein, UniProt Q9CU62 1-1233)
chain: MGFLKLIEIENFKSYKGRQIIGPFQRFTAIIGPNGSGKSNLMDAISFVLGEKTSNLRVKTLRDLIHGAPVGKPAANRAFVSMVYSEEGAEDRTFARVIVGGSSEYKINNKVVQLHEYSEELEKLGILIKARNFLVFQGAVESIAMKNPKERTALFEEISRSGELAQEYDKRKKEMVKAEEDTQFNYHRKKNIAAERKEAKQEKEEADRYQRLKDEVVRAQVQLQLFKLYHNEVEIEKLNKELASKNKEIEKDKKRMDKVEDELKEKKKELGKMMREQQQIEKEIKEKDSELNQKRPQYIKAKENTSHKIKKLEAAKKSLQNAQKHYKKRKGDMDELEKEMLSVEKARQEFEERMEEESQSQGRDLTLEENQVKKYHRLKEEASKRAATLAQELEKFNRDQKADQDRLDLEERKKVETEAKIKQKLREIEENQKRIEKLEEYITTSKQSLEEQKKLEGELTEEVEMAKRRIDEINKELNQVMEQLGDARIDRQESSRQQRKAEIMESIKRLYPGSVYGRLIDLCQPTQKKYQIAVTKVLGKNMDAIIVDSEKTGRDCIQYIKEQRGEPETFLPLDYLEVKPTDEKLRELKGAKLVIDVIRYEPPHIKKALQYACGNALVCDNVEDARRIAFGGHQRHKTVALDGTLFQKSGVISGGASDLKAKARRWDEKAVDKLKEKKERLTEELKEQMKAKRKEAELRQVQSQAHGLQMRLKYSQSDLEQTKTRHLALNLQEKSKLESELANFGPRINDIKRIIQSREREMKDLKEKMNQVEDEVFEEFCREIGVRNIREFEEEKVKRQNEIAKKRLEFENQKTRLGIQLDFEKNQLKEDQDKVHMWEQTVKKDENEIEKLKKEEQRHMKIIDETMAQLQDLKNQHLAKKSEVNDKNHEMEEIRKKLGGANKEMTHLQKEVTAIETKLEQKRSDRHNLLQACKMQDIKLPLSKGTMDDISQEEGSSQGEESVSGSQRTSSIYAREALIEIDYGDLCEDLKDAQAEEEIKQEMNTLQQKLNEQQSVLQRIAAPNMKAMEKLESVRDKFQETSDEFEAARKRAKKAKQAFEQIKKERFDRFNACFESVATNIDEIYKALSRNSSAQAFLGPENPEEPYLDGINYNCVAPGKRFRPMDNLSGGEKTVAALALLFAIHSYKPAPFFVLDEIDAALDNTNIGKVANYIKEQSTCNFQAIVISLKEEFYTKAESLIGVYPEQGDCVISKVLTFDLTKYPDANPNPNEQ
For B1, the binding result was “binds”.
